Construct, isoform or probe ends are uncertain for at least one entry. No signal at the amounts used counts as a negative. Where a protein sequence is shown, tags need not be part of it.
Molecular target: T1, AraC (MSMEG_0307) (Mycobacterium smegmatis mc2155) (UniProt A0QP84)
T1 sequence (looked up, limits assumed): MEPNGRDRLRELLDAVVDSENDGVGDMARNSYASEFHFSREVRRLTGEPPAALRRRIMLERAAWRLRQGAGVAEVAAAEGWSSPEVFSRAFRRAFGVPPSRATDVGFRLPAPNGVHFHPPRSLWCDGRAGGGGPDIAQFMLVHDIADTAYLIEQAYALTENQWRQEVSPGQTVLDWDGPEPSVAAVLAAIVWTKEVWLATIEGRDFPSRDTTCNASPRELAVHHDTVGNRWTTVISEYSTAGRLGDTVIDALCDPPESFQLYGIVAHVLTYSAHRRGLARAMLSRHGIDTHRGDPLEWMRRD
Assay: EMSA
Conditions: 10 mM MgCl2; EMSA: 20 mM Tris-HCl pH 8, 75 mM NaCl, 10 mM MgCl2, 100 ng DNA in 10 ul, room temperature 30 min; native PAGE (5% in Methods, 8% in legend), ethidium bromide; recombinant protein; protein details: His6 with thrombin site (pET28b(+), N-terminal); probe letters rebuilt from the primers and the genome

| Sequence | binding result |
| --- | --- |
| AGTGGAACTCCGAGGCGTAGCTGTTGCGCGCCATGTCGCCGACACCGTCGTTCTCGGAGTCGACGACGGCGTCGAGCAGTTCACGCAGCCGGTCGCGCCCGTTCGGTTCCACACTCACGTTCACCGAGTATGGTCGGCGCGCCGGGGTCAGGACATGACTTTTCTTGCTGTGATCCCCCGGCTCAGGTGTCGAGCACCTCGGCGACACGTGCCTGGACGTCACGGCCGGCCAGATCGCCGAGGTCGATGCCGAACCGGTTGACGATGGCGTCGAGCACCTGTGCCGCGCTGTCGAACCGGATGCGCTCGGTCGCACCGGACCGGTGGACCGCCAGGTTGC (double strand) [Motif 2 fragment] | no binding |
| CGATCGCGTGCAATGTGCCGAGATCGGGACGCGGCCGCCCGTCGAGGCCGATCCGCGCGAGATACCCGCTGAGGTCCATCGCCATGCCTGCCATCGTCCAACCTCGACAGCAGTTCAGGTCAAGTAGGATGGAGAACTAGAACACGTTCCAATTCACGTCAGGGGGACCCCCGTGGCCGCTACCGATACCGACCCAGGTGAGATCACCAAGTGGGATCCCGGCCTCACCGAGAAGGTCATGGGCTGGCTGCGCCCGCTCATCAAGGGGTATCACCGGGCCGAGGTGCACGGCCTCGACACGTTCCCCAAC (double strand) [Motif 1 fragment] | binds |
